PubChem BioAssay AID1259308 – NCATS, 2017
Screen: 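Knock-downs that increase output of a recombinant reporter protein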 (primary screen). Cells: human HEK293 embryonic kidney cells stably expressing firefly luciferase (HEK-CMV-Luc2-Hygro). Reagents: single siRNA against human genes, 0.8 pmol siRNA per well. Duration: 72 h. Read-out: 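Reporter luminescence and viable-cell signal on separate replicate plates, given as percent of non-targeting control and median/MAD z-scores, plus per-cell luciferase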. Scale: total luciferase, z-score and total luciferase, % of control: higher = more reporter protein produced. Call rule: 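Active when the median/MAD z-score for overall luciferase is greater than 3; a gene was taken forward for validation with new siRNAs if at least two of its three siRNAs passed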. Meaning of the calls: active = raised luciferase; inactive = no rise.
The whole screen tested about 59,000 reagents; below is a part drawn at random. About 1,510 of them (2.6%) count as active. 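Calls use total luciferase alone and ignore viability, so some active siRNAs may act by altering cell number.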 Reagents against one gene are numbered here. Further read-outs or replicates are left out here.

GPR26 #1: total luciferase, z-score = 3.04; total luciferase, % of control = 142; call = active
GPR26 #2: total luciferase, z-score = -0.122; total luciferase, % of control = 79.5; call = inactive
GPR26 #3: total luciferase, z-score = 1.45; total luciferase, % of control = 111; call = inactive
ZMYM1 #1: total luciferase, z-score = -0.142; total luciferase, % of control = 79.1; call = inactive
ZMYM1 #2: total luciferase, z-score = -0.104; total luciferase, % of control = 79.8; call = inactive
ZMYM1 #3: total luciferase, z-score = 0.125; total luciferase, % of control = 84.4; call = inactive
PIGV #1: total luciferase, z-score = 0.175; total luciferase, % of control = 85.4; call = inactive
PIGV #2: total luciferase, z-score = 0.053; total luciferase, % of control = 82.9; call = inactive
PIGV #3: total luciferase, z-score = 2.58; total luciferase, % of control = 133; call = inactive

An excerpt from above, reduced to “total luciferase, % of control”.
ZMYM1 #1 = 79.1
ZMYM1 #2 = 79.8

Further reagents follow:
EIF2D #1: total luciferase, z-score = 0.589; total luciferase, % of control = 93.6; call = inactive
EIF2D #2: total luciferase, z-score = 1.36; total luciferase, % of control = 109; call = inactive
EIF2D #3: total luciferase, z-score = 0.315; total luciferase, % of control = 88.2; call = inactive
STEAP2 #1: total luciferase, z-score = 1.02; total luciferase, % of control = 102; call = inactive
STEAP2 #2: total luciferase, z-score = -1.34; total luciferase, % of control = 55.2; call = inactive
STEAP2 #3: total luciferase, z-score = 0.804; total luciferase, % of control = 97.9; call = inactive
TBP #1: total luciferase, z-score = 1.25; total luciferase, % of control = 107; call = inactive
TBP #2: total luciferase, z-score = 2.81; total luciferase, % of control = 138; call = inactive
TBP #3: total luciferase, z-score = 1.93; total luciferase, % of control = 120; call = inactive
HAUS6 #1: total luciferase, z-score = 1.01; total luciferase, % of control = 102; call = inactive
HAUS6 #2: total luciferase, z-score = -0.488; total luciferase, % of control = 72.2; call = inactive
HAUS6 #3: total luciferase, z-score = -0.54; total luciferase, % of control = 71.2; call = inactive
